Our source for the activity values is US9101628B2, “Methods and composition of treating a flaviviridae family viral infection” (The Board of Trustees of the Leland Stanford Junior …, priority 2007, dated 2015).

In this assay the test system is HCV RNA replication. Nature of the assay: RNA replication inhibition assay (luciferase reporter-linked HCV genome). As to conditions: Hepatitis C virus, percentage of untreated control population. On the technique in general: In a reporter assay the amount or activity of a reporter protein is the signal.

For the compound `Oc1cc2ncn(Cc3ccc(Cl)cc3)c2cc1O` [Compound 62], for the setting “read-out: Residual Luciferase activity, 5 micromolar”, the activity at 5 µM is below 20%. The activity at 10 µM (read-out: Residual Luciferase activity, 10 micromolar) is below 20%.
